Experimental findings from PMC12602706 are described below.

The experiment deals with T1, FLAG-tagged LMO4 (LIM domain only protein 4) (human) (UniProt P61968).
T1 sequence: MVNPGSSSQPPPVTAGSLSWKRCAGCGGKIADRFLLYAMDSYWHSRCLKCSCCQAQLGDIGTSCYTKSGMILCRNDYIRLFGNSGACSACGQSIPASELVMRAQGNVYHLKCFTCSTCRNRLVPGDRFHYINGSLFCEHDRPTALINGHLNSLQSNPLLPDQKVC
The experiment is described as follows: co-IP; Flag-tagged LMO4 pulled down from Cal27 cells, in the presence or absence of MG132; blotted for RAB17 and ubiquitin.

Results are given in words; binding and its absence hold for the method and conditions named. Binding seen in cells or lysates may run through a third protein. Some binding calls cover weakened binding; strength is not graded here. Sequences can lack the tags named with a protein.

B1: RAB17 (Ras-related protein Rab-17) (protein, UniProt Q9H0T7 1-212)
chain: MAQAHRTPQPRAAPSQPRVFKLVLLGSGSVGKSSLALRYVKNDFKSILPTVGCAFFTKVVDVGATSLKLEIWDTAGQEKYHSVCHLYFRGANAALLVYDITRKDSFLKAQQWLKDLEEELHPGEVLVMLVGNKTDLSQEREVTFQEGKEFADSQKLLFMETSAKLNHQVSEVFNTVAQELLQRSDEEGQALRGDAAVALNKGPARQAKCCAH
Consider B1, for which the binding entry is “binds”.
